Article PMC10890932
These are yes or no findings as the source states them, for the method shown. In cells and extracts the contact can be indirect. Binding can be weak; no strength is given.

Target: T1, TKT full-length (plasmid co-transfected with PARP1 truncation mutants) (human) (UniProt P29401)
T1 sequence: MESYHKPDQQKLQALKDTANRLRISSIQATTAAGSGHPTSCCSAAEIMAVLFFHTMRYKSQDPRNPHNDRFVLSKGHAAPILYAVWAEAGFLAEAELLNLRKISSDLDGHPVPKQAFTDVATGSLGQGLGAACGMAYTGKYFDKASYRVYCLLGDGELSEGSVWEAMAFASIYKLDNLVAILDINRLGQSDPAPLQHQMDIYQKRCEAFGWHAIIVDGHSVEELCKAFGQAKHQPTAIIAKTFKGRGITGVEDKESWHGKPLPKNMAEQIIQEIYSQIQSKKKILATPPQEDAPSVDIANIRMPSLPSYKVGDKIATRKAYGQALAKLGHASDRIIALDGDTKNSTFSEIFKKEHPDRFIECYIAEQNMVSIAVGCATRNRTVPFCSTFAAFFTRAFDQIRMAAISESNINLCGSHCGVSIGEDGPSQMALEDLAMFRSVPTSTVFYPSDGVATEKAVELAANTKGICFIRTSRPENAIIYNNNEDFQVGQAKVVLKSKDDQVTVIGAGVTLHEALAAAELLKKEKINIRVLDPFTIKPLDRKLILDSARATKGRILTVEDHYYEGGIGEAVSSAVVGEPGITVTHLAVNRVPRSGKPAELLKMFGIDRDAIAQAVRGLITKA
Assay: co-IP; Hep3B cells transfected with TKT or PARP1 truncation mutants together with PARP1 or TKT full-length plasmid

In the case of “ZnF domain of PARP1 (truncation mutant) (domain or fragment)”, the binding is reported as “binds”.
